Assay results: patent US8207180B2, “Tricyclic indoles and (4,5-dihydro) indoles” (Nerviano Medical Sciences S.R.L., priority 2006, dated 2012)
Some results were stated once for a whole list of compounds, not compound by compound. At least one compound was matched to its structure with a doubt left.

Protein sequences, listed by entry. Tags and fused reporters are not part of them. Lines headed by an entry give the natural chain unless they say otherwise; changes in a name come on top.
UniProt O00311: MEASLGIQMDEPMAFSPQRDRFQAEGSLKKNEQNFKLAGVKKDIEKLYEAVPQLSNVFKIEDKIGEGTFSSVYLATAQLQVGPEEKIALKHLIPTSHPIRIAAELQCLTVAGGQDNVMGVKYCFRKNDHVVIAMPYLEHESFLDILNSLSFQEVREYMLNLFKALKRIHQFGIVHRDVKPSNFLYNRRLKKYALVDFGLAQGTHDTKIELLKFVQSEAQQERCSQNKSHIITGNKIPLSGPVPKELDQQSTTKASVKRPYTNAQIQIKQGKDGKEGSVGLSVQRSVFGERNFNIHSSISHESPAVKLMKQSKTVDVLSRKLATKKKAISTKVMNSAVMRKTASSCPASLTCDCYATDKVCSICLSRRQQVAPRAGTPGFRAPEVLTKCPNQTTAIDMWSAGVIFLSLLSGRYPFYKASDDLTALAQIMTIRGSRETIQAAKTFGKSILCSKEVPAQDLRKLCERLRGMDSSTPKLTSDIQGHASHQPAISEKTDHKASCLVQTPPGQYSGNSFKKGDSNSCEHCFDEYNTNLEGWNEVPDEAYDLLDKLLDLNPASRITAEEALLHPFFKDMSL
UniProt P31749: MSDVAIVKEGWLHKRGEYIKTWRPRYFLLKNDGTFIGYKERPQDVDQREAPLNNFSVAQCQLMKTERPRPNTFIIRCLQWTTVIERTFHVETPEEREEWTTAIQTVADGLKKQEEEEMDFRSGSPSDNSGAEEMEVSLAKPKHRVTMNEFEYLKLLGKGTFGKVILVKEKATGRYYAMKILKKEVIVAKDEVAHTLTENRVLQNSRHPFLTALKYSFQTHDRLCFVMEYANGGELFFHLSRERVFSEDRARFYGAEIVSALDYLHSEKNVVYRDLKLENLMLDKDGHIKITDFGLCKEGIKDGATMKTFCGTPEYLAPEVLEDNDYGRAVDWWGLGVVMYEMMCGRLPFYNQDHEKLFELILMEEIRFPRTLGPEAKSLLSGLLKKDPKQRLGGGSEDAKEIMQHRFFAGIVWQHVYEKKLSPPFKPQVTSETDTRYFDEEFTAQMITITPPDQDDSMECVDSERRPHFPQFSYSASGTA

Experiments:
[1] = target: Cdc7/Dbf4 (Homo sapiens, UniProt O00311); assay: Inhibition assay of Cdc7/Dbf4 activity (Dowex resin capture, 33P-ATP, MCM2 substrate); type: biochemical; conditions: MCM2 6 μM, ATP 2 μM, enzyme 2 nM, 60 min rt
Protocol: Inhibition Assay of Cdc7 Activity
The inhibiting activity of putative Cdc7 inhibitors and the potency of selected compounds is determined through a method of assay based on the use of Dowex resin capture technology.
The assay consists of the transfer of radioactivity labeled phosphate moiety by the kinase to an acceptor substrate. The resulting 33P-labeled product is separated from unreacted tracer, transferred into a scintillation cocktail and light emitted is measured in a scintillation counter.
The inhibition assay of Cdc7/Dbf4 activity is performed according to the following protocol.
The MCM2 substrate is trans-phosphorylated by the Cdc7/Dbf4 complex in the presence of ATP traced with γ^33-ATP. The reaction is stopped by addition of Dowex resin in the presence of formic acid. […] The supernatant is collected, transferred into Optiplate plates and the extent of substrate phosphorylation is evaluated by β counting. […]
To each well of the plate were added: • 10 μl test compound (10 increasing concentrations in the nM to uM range to generate a dose-response curve). […] After other 60 min incubation, 50 μl of suspension were withdrawn and transferred into 96-well OPTIPLATEs containing 150 μl of MicroScint 40 (Packard); after 5-10 minutes shaking the plates were read for 1 min in a Packard TOP-Count radioactivity reader. […]

[2] = target: AKT-1 (Homo sapiens, UniProt P31749); assay: AKT kinase inhibition assay: Dowex technique (AKT1, Aktide substrate); type: biochemical; conditions: AKT1 5 nM, Aktide 30 μM, ATP 132 μM, 60 min rt
From the text: Method for AKT Kinase Inhibition Assay: Dowex Technique
General Principle for Kinase Inhibition Assays
Specific peptide or protein substrates are trans-phosphorylated by their specific serine -threonine or tyrosine kinase, in the presence of ATP traced with ^33Pγ-ATP, and in the presence of their own optimal buffer and cofactors.
At the end of the phosphorylation reaction, more than 98% cold ATP and radioactive ATP is captured by an excess of the ion exchange dowex resin; the resin then settles down to the bottom of the reaction plate by gravity.
Supernatant, containing the phosphorylated substrate, is subsequently withdrawn and transferred into a counting plate, then evaluated by β-counting. […]
Another mixing cycle is performed after all the plates are stopped, this time using normal tips: the plates are then allowed to rest for about one hour in order to maximize ATP capture. At this point, 20 μl of the supernatant are transferred into 384-Optiplates (Perkin-Elmer), with 70 μl of Microscint 40 (Perkin-Elmer); after 5 min of orbital shaking the plates are read on a Perkin-Elmer Top Count radioactivity counter.
Data are analysed by an internally customized version of the SW package “Assay Explorer” that provides either % inhibition for primary assays or sigmoidal fittings of the ten-dilutions curves for IC50 determination, for the secondary assays/hit confirmation routines.

In the case of NC[C@H](Cc1ccccc1)NC(=O)c1c(-c2ccccc2)[nH]c2c1ccc1cnccc12 [G9], the IC50 [1] is reported as < 1000 nM and the IC50 [2] is reported as < 500 nM.
